Test results published in paper PMC3738497.
No constants are given. Whether binding was seen depends on the method and setting. Binding seen in cells or lysates may run through a third protein. Some entries that bind do so weakly or less than the wild type.

Amino acid sequences for entries named in this document (tags omitted). Residues count along the entry.
UniProt O75460, residues 19-977: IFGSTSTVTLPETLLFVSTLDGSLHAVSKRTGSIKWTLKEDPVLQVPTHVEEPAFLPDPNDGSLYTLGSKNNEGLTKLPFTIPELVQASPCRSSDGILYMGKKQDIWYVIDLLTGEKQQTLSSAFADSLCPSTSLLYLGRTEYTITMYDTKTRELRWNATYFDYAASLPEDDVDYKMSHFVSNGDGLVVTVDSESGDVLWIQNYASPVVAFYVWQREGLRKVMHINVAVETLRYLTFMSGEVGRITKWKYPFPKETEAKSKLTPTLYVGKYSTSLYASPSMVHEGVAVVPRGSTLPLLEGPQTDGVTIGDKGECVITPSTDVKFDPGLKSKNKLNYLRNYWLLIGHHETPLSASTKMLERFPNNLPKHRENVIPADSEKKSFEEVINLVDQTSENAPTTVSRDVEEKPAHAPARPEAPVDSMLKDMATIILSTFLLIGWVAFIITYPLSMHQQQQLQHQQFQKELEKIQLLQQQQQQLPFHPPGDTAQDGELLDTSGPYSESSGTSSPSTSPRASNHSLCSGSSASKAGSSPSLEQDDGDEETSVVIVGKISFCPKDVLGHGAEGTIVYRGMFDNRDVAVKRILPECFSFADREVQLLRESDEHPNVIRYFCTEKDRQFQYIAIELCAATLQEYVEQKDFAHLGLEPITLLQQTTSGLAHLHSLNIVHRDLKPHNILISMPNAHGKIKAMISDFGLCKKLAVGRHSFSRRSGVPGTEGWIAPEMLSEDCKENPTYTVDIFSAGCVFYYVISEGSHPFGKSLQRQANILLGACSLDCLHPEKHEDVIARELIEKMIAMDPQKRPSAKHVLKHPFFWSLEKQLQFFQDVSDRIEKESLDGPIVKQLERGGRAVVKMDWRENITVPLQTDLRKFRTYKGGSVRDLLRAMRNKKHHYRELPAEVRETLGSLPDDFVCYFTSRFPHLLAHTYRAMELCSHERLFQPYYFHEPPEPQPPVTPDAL
UniProt P16791: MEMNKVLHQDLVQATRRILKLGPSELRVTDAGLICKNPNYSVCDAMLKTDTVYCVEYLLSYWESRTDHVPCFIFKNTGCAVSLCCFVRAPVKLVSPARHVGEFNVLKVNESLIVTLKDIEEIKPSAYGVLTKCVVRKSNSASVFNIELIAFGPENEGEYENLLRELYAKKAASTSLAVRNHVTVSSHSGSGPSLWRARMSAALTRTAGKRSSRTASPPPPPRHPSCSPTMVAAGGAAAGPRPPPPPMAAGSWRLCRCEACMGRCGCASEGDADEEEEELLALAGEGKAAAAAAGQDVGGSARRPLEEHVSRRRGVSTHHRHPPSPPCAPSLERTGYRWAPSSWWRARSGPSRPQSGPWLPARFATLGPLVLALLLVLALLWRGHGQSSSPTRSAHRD

Target: HA-tagged murine or human IRE1 (Figure 7A) (not stated (human or mouse cDNA cloned)) (UniProt O75460)
Test: co-IP; 293A cells cotransfected, lysed after 24 h with RIPA buffer; IRE1-HA precipitated with an anti-HA antibody; coprecipitated proteins detected by immunoblot with anti-Flag or M50-specific antibody

UL50-Flag (Flag-tagged HCMV UL50) (from UniProt P16791 1-397)
binding: binds
